Test results as given in PubChem BioAssay AID330 (DTP/NCI, 2004).
The list does not hold the whole screen: its compounds were picked by chemical class. Other doses and runs of a compound may be missing. T/C: endpoint of the treated group in % of that of the vehicle group. Where survival is the endpoint, the PubChem record calls one and a half times the control and up active, and a quarter to a half above the control has no call in these data; cut-offs in other NCI protocols can differ. Some T/C values are marked as having no survivor count here; that says nothing about deaths at the dose. Schedules are NCI's codes, taken here to give the interval after Q, in days (D) or hours (H), and the number of doses after X. Some entries hold several experiments; their values stand side by side, smallest first.

Test system: P388 leukemia ip, CD2F1 mice, survival T/C
Experiment: NCI In Vivo Anticancer Drug Screen. Data for tumor model P388 Leukemia (intraperitoneal) in CD2F1 (CDF1) mice
Conditions: T/C endpoint: median survival time, higher T/C = longer survival
[1] = dose: 6.25 mg/kg/injection, schedule: Q01DX009 (ip), vehicle: saline with Tween-80
[2] = dose: 6.25 mg/kg/injection, schedule: Q04DX003 (ip), vehicle: saline with Tween-80
[3] = dose: 12.5 mg/kg/injection, schedule: Q01DX009 (ip), vehicle: saline with Tween-80
[4] = dose: 12.5 mg/kg/injection, schedule: Q04DX003 (ip), vehicle: saline with Tween-80
[5] = dose: 100.0 mg/kg/injection, schedule: Q01DX009 (ip), vehicle: saline with Tween-80
[6] = dose: 100.0 mg/kg/injection, schedule: Q04DX003 (ip), vehicle: saline with Tween-80

**Q.** With `O=C(O)CCc1ccc(CN(CCCl)CCCl)cc1` as the molecule, how does the T/C (dose: 1.25 mg/kg/injection, schedule: Q01DX009 (ip), vehicle: saline) read?
**A.** 100 % of control [survivor count not shown]

**Q.** What about the T/C (dose: 1.65 mg/kg/injection, schedule: Q04DX003 (ip), vehicle: saline) of the same molecule?
**A.** 154 % of control [survivor count not shown]

**Q.** And the T/C (dose: 2.5 mg/kg/injection, schedule: Q01DX009 (ip), vehicle: saline)?
**A.** 108 % of control [survivor count not shown]

**Q.** And the T/C (dose: 2.5 mg/kg/injection, schedule: Q04DX003 (ip), vehicle: saline)?
**A.** 163 % of control [survivor count not shown]

**Q.** And the T/C (dose: 3.75 mg/kg/injection, schedule: Q04DX003 (ip), vehicle: saline)?
**A.** 190 % of control [survivor count not shown]

**Q.** What about the T/C (dose: 5.0 mg/kg/injection, schedule: Q01DX009 (ip), vehicle: saline) of the same molecule?
**A.** 100 % of control [survivor count not shown]

**Q.** And the T/C (dose: 5.0 mg/kg/injection, schedule: Q04DX003 (ip), vehicle: saline with Tween-80)?
**A.** 160 % of control [survivor count not shown]

**Q.** What does the source list for `Oc1ccc(Cl)cc1CN(CCCl)CCCl`?
**A.** T/C (dose: 3.13 mg/kg/injection, schedule: Q04DX003 (ip), vehicle: saline with Tween-80): 123 % of control [survivor count not shown]; T/C [1]: 136 % of control [survivor count not shown]; T/C [2]: 133 % of control [survivor count not shown]; T/C [3]: 90 % of control [survivor count not shown]; T/C [4]: 152 % of control [survivor count not shown]; T/C (dose: 16.5 mg/kg/injection, schedule: Q04DX003 (ip), vehicle: saline with Tween-80): 140 % of control [survivor count not shown]; T/C (dose: 37.5 mg/kg/injection, schedule: Q04DX003 (ip), vehicle: saline with Tween-80): 145 % of control [survivor count not shown]

**Q.** `O=C(O)C(Cc1ccccc1)N(CCCl)CCCl` (stereo not given) was tested. Which T/C (dose: 0.38 mg/kg/injection, schedule: Q01DX009 (ip), vehicle: saline with Tween-80) did it give?
**A.** 124 % of control [survivor count not shown]

**Q.** What about the T/C (dose: 0.75 mg/kg/injection, schedule: Q01DX009 (ip), vehicle: saline with Tween-80) of the same molecule?
**A.** 132 % of control [survivor count not shown]

**Q.** What about the T/C (dose: 1.5 mg/kg/injection, schedule: Q01DX009 (ip), vehicle: saline with Tween-80) of the same molecule?
**A.** 143 [survivor count not shown] and 157 % of control [survivor count not shown]

**Q.** And the T/C (dose: 3.0 mg/kg/injection, schedule: Q01DX009 (ip), vehicle: saline with Tween-80)?
**A.** 143 % of control [survivor count not shown]

**Q.** What about the T/C (dose: 4.0 mg/kg/injection, schedule: Q04DX003 (ip), vehicle: saline with Tween-80) of the same molecule?
**A.** 104 % of control [survivor count not shown]

**Q.** And the T/C (dose: 6.0 mg/kg/injection, schedule: Q01DX009 (ip), vehicle: saline with Tween-80)?
**A.** 178 % of control [survivor count not shown]

**Q.** What about the T/C [2] of the same molecule?
**A.** 163 % of control [survivor count not shown]

**Q.** With `OCC#CCN(CCCl)CCCl` as the molecule, how does the T/C (dose: 0.4 mg/kg/injection, schedule: Q04DX003 (ip), vehicle: saline with Tween-80) read?
**A.** 118 % of control [survivor count not shown]

**Q.** And the T/C (dose: 0.75 mg/kg/injection, schedule: Q04DX003 (ip), vehicle: saline with Tween-80)?
**A.** 122 % of control [survivor count not shown]

**Q.** What about the T/C (dose: 0.9 mg/kg/injection, schedule: Q04DX003 (ip), vehicle: saline) of the same molecule?
**A.** 185 % of control [survivor count not shown]

**Q.** What about the T/C (dose: 1.5 mg/kg/injection, schedule: Q04DX003 (ip), vehicle: saline with Tween-80) of the same molecule?
**A.** 145 % of control [survivor count not shown]

**Q.** And the T/C (dose: 1.5 mg/kg/injection, schedule: Q04DX003 (ip), vehicle: saline)?
**A.** 205 % of control [survivor count not shown]

**Q.** And the T/C (dose: 2.25 mg/kg/injection, schedule: Q04DX003 (ip), vehicle: saline)?
**A.** 205 % of control [survivor count not shown]

**Q.** For `S=P(Cl)(Cl)N(CCCl)CCCl`, which T/C [2] is on record?
**A.** 95 [survivor count not shown] and 105 % of control [survivor count not shown]

**Q.** What about the T/C [4] of the same molecule?
**A.** 90 [survivor count not shown] and 100 % of control [survivor count not shown]

**Q.** What about the T/C (dose: 25.0 mg/kg/injection, schedule: Q04DX003 (ip), vehicle: saline with Tween-80) of the same molecule?
**A.** 95 [survivor count not shown] and 100 % of control [survivor count not shown]

**Q.** For `Cc1cc(C)c(N(CCCl)CCCl)cc1C`, which T/C (dose: 0.8 mg/kg/injection, schedule: Q01DX009 (ip), vehicle: saline with Tween-80) is on record?
**A.** 128 % of control [survivor count not shown]

**Q.** What about the T/C (dose: 1.2 mg/kg/injection, schedule: Q01DX009 (ip), vehicle: saline with Tween-80) of the same molecule?
**A.** 137 % of control [survivor count not shown]

**Q.** What about the T/C (dose: 1.8 mg/kg/injection, schedule: Q01DX009 (ip), vehicle: saline with Tween-80) of the same molecule?
**A.** 164 % of control [survivor count not shown]

**Q.** What about the T/C (dose: 2.7 mg/kg/injection, schedule: Q01DX009 (ip), vehicle: saline with Tween-80) of the same molecule?
**A.** 156 % of control [survivor count not shown]

**Q.** What about the T/C (dose: 2.7 mg/kg/injection, schedule: Q01DX010 (ip), vehicle: saline with Tween-80) of the same molecule?
**A.** 159 % of control [survivor count not shown]

**Q.** And the T/C (dose: 4.0 mg/kg/injection, schedule: Q01DX010 (ip), vehicle: saline with Tween-80)?
**A.** 180 % of control [survivor count not shown]

**Q.** What about the T/C (dose: 6.0 mg/kg/injection, schedule: Q01DX010 (ip), vehicle: saline with Tween-80) of the same molecule?
**A.** 223 % of control [survivor count not shown]

**Q.** And the T/C [1]?
**A.** 217 % of control [survivor count not shown]

**Q.** And the T/C (dose: 9.0 mg/kg/injection, schedule: Q01DX010 (ip), vehicle: saline with Tween-80)?
**A.** 229 % of control [survivor count not shown]

**Q.** And the T/C [3]?
**A.** 103 % of control [survivor count not shown]

**Q.** How did the T/C (dose: 17.8 mg/kg/injection, schedule: Q01DX009 (ip), vehicle: saline with Tween-80) turn out when `Oc1c(SCCCl)c(SCCCl)c(O)c(SCCCl)c1SCCCl` was run?
**A.** 118 % of control [survivor count not shown]

**Q.** What about the T/C (dose: 26.6 mg/kg/injection, schedule: Q01DX009 (ip), vehicle: saline with Tween-80) of the same molecule?
**A.** 118 % of control [survivor count not shown]

**Q.** What about the T/C (dose: 40.0 mg/kg/injection, schedule: Q01DX009 (ip), vehicle: saline with Tween-80) of the same molecule?
**A.** 131 % of control [survivor count not shown]

**Q.** And the T/C (dose: 44.0 mg/kg/injection, schedule: Q01DX009 (ip), vehicle: saline with Tween-80)?
**A.** 159 % of control [survivor count not shown]

**Q.** What about the T/C (dose: 44.0 mg/kg/injection, schedule: Q04DX003 (ip), vehicle: saline with Tween-80) of the same molecule?
**A.** 118 % of control [survivor count not shown]

**Q.** And the T/C (dose: 60.0 mg/kg/injection, schedule: Q01DX009 (ip), vehicle: saline with Tween-80)?
**A.** 127 % of control [survivor count not shown]

**Q.** What about the T/C (dose: 66.0 mg/kg/injection, schedule: Q01DX009 (ip), vehicle: saline with Tween-80) of the same molecule?
**A.** 168 % of control [survivor count not shown]

**Q.** And the T/C (dose: 66.0 mg/kg/injection, schedule: Q04DX003 (ip), vehicle: saline with Tween-80)?
**A.** 131 % of control [survivor count not shown]

**Q.** And the T/C [5]?
**A.** 170 [survivor count not shown] and 177 % of control [survivor count not shown]

**Q.** And the T/C [6]?
**A.** 145 % of control [survivor count not shown]

**Q.** What about the T/C (dose: 150.0 mg/kg/injection, schedule: Q01DX009 (ip), vehicle: saline with Tween-80) of the same molecule?
**A.** 190 % of control [survivor count not shown]

**Q.** What about the T/C (dose: 150.0 mg/kg/injection, schedule: Q04DX003 (ip), vehicle: saline with Tween-80) of the same molecule?
**A.** 159 % of control [survivor count not shown]

**Q.** And the T/C (dose: 200.0 mg/kg/injection, schedule: Q01DX009 (ip), vehicle: saline with Tween-80)?
**A.** 180 % of control [survivor count not shown]

**Q.** And the T/C (dose: 400.0 mg/kg/injection, schedule: Q01DX009 (ip), vehicle: saline with Tween-80)?
**A.** 160 % of control [survivor count not shown]

**Q.** With `O=P(N(CCCl)CCCl)(N1CC1)N1CC1` as the molecule, how does the T/C (dose: 25.0 mg/kg/injection, schedule: Q01DX009 (ip), vehicle: saline with Tween-80) read?
**A.** 113 % of control [survivor count not shown]

**Q.** What about the T/C (dose: 50.0 mg/kg/injection, schedule: Q01DX009 (ip), vehicle: saline with Tween-80) of the same molecule?
**A.** 127 % of control [survivor count not shown]

**Q.** And the T/C [5]?
**A.** 136 [survivor count not shown] and 141 % of control [survivor count not shown]

**Q.** What about the T/C [6] of the same molecule?
**A.** 112 % of control [survivor count not shown]

**Q.** And the T/C (dose: 200.0 mg/kg/injection, schedule: Q04DX003 (ip), vehicle: saline with Tween-80)?
**A.** 137 % of control [survivor count not shown]

**Q.** What about the T/C (dose: 400.0 mg/kg/injection, schedule: Q04DX003 (ip), vehicle: saline with Tween-80) of the same molecule?
**A.** 158 % of control [survivor count not shown]
